{"source": "PubChem BioAssay AID504786 (Drosophila RNAi Screening Center, 2011)", "test": "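Positive regulators of HIF-driven reporter output in Drosophila cells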 (primary screen)", "system": "Drosophila S2 cells with a stable HIF luciferase reporter", "reagent": "long dsRNA against Drosophila genes, about 0.2 µg dsRNA per well of a 384-well plate", "timing": "three days of knock-down, then 20 h of DFO before reading", "treatment": "desferrioxamine (DFO) at 100 µM, an iron chelator that mimics hypoxia, for 20 h", "measurement": "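Firefly luciferase driven by the mouse ldh-a hypoxia-response element, measured after 20 h of 100 µM DFO; z-scores per plate, higher means more signal lost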", "direction": "z-score: higher = stronger loss of HIF reporter signal", "note": "In all, the deposit lists about 21,000 reagents; this is an unselected part of those with a known target gene and a result. 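Primary screen; positive scores mean lost reporter signal, so the sign may be inverted from the usual convention.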 Reagents against one gene are numbered here."}
{"Gene": "Dyrk3 (Dual-specificity tyrosine phosphorylation-regulated kinase 3)", "reagent": 1, "z-score, replicate 1": 0.4, "z-score, replicate 2": -0.3}
{"Gene": "Tsp42Eg (Tetraspanin 42Eg)", "reagent": 1, "z-score, replicate 1": -0.4, "z-score, replicate 2": -0.3}
{"Gene": "CG10962", "reagent": 1, "z-score, replicate 1": -0.3, "z-score, replicate 2": -0.4}
{"Gene": "Tsp42Eo (Tetraspanin 42Eo)", "reagent": 1, "z-score, replicate 1": -0.2, "z-score, replicate 2": 0}
{"Gene": "CG10013", "reagent": 1, "z-score, replicate 1": -0.3, "z-score, replicate 2": -0.3}
{"Gene": "wnd (wallenda)", "reagent": 1, "z-score, replicate 1": -0.2, "z-score, replicate 2": -1}
{"Gene": "wnd (wallenda)", "reagent": 2, "z-score, replicate 1": -0.2, "z-score, replicate 2": -0.5}
{"Gene": "CG31741", "reagent": 1, "z-score, replicate 1": -0.1, "z-score, replicate 2": -0.1}
{"Gene": "CG11703", "reagent": 1, "z-score, replicate 1": -0.2, "z-score, replicate 2": -0.3}
{"Gene": "Pino (Pinocchio)", "reagent": 1, "z-score, replicate 1": -1.3, "z-score, replicate 2": -0.7}
{"Gene": "Pino (Pinocchio)", "reagent": 2, "z-score, replicate 1": -0.2, "z-score, replicate 2": -0.5}
{"Gene": "alka (alkaliphile)", "reagent": 1, "z-score, replicate 1": -0.4, "z-score, replicate 2": -0.2}
{"Gene": "CG9512", "reagent": 1, "z-score, replicate 1": -0.3, "z-score, replicate 2": 0}
{"Gene": "Gpa2 (Glycoprotein hormone alpha 2)", "reagent": 1, "z-score, replicate 1": -0.1, "z-score, replicate 2": 0.5}
{"Gene": "CG17261", "reagent": 1, "z-score, replicate 1": -0.3, "z-score, replicate 2": -0.3}
{"Gene": "CG5104", "reagent": 1, "z-score, replicate 1": -0.2, "z-score, replicate 2": -0.5}
{"Gene": "Nhe3 (Na[+]/H[+] hydrogen exchanger 3)", "reagent": 1, "z-score, replicate 1": -0.3, "z-score, replicate 2": -0.3}
{"Gene": "CG5412", "reagent": 1, "z-score, replicate 1": -0.3, "z-score, replicate 2": 0}
{"Gene": "CCT3 (Chaperonin containing TCP1 subunit 3)", "reagent": 1, "z-score, replicate 1": -0.2, "z-score, replicate 2": 0.4}
{"Gene": "Pka-R1 (Protein kinase, cAMP-dependent, regulatory subunit type 1)", "reagent": 1, "z-score, replicate 1": -0.3, "z-score, replicate 2": -0.7}
{"Gene": "Pka-R1 (Protein kinase, cAMP-dependent, regulatory subunit type 1)", "reagent": 2, "z-score, replicate 1": -0.3, "z-score, replicate 2": -0.3}
{"Gene": "frm (farmer)", "reagent": 1, "z-score, replicate 1": -0.3, "z-score, replicate 2": -0.3}
{"Gene": "CG15919", "reagent": 1, "z-score, replicate 1": -0.7, "z-score, replicate 2": -0.4}
{"Gene": "CG33278", "reagent": 1, "z-score, replicate 1": -0.1, "z-score, replicate 2": 0}
{"Gene": "comm3", "reagent": 1, "z-score, replicate 1": -0.3, "z-score, replicate 2": -0.2}
{"Gene": "comm3", "reagent": 2, "z-score, replicate 1": 0.3, "z-score, replicate 2": 0.5}
{"Gene": "comm3", "reagent": 3, "z-score, replicate 1": 0.4, "z-score, replicate 2": -0.3}
{"Gene": "Su(Tpl) (Suppressor of Triplolethal)", "reagent": 1, "z-score, replicate 1": 2.8, "z-score, replicate 2": 2.2}
{"Gene": "galectin", "reagent": 1, "z-score, replicate 1": -0.1, "z-score, replicate 2": 0.3}
{"Gene": "Shmt (Serine hydroxymethyl transferase)", "reagent": 1, "z-score, replicate 1": -0.2, "z-score, replicate 2": -0.2}
{"Gene": "Obp19c (Odorant-binding protein 19c)", "reagent": 1, "z-score, replicate 1": 0, "z-score, replicate 2": 0.6}
{"Gene": "CG14759", "reagent": 1, "z-score, replicate 1": -0.2, "z-score, replicate 2": -0.1}
{"Gene": "al (aristaless)", "reagent": 1, "z-score, replicate 1": -0.2, "z-score, replicate 2": 0}
{"Gene": "beat-IV (beaten path IV)", "reagent": 1, "z-score, replicate 1": -0.2, "z-score, replicate 2": 0.5}
{"Gene": "beat-IV (beaten path IV)", "reagent": 2, "z-score, replicate 1": -0.3, "z-score, replicate 2": 1.4}
{"Gene": "CR31292 (pseudo)", "reagent": 1, "z-score, replicate 1": 0.2, "z-score, replicate 2": 0.2}
{"Gene": "y (yellow)", "reagent": 1, "z-score, replicate 1": -0.3, "z-score, replicate 2": 0.1}
{"Gene": "CG8399", "reagent": 1, "z-score, replicate 1": -0.2, "z-score, replicate 2": -0.1}
{"Gene": "rgr (regular)", "reagent": 1, "z-score, replicate 1": -0.3, "z-score, replicate 2": -0.3}
{"Gene": "rgr (regular)", "reagent": 2, "z-score, replicate 1": -0.2, "z-score, replicate 2": -0.1}

Targets listed so far whose target name starts with T or t (2):
{"Gene": "Tsp42Eg (Tetraspanin 42Eg)", "reagent": 1, "z-score, replicate 1": -0.4, "z-score, replicate 2": -0.3}
{"Gene": "Tsp42Eo (Tetraspanin 42Eo)", "reagent": 1, "z-score, replicate 1": -0.2, "z-score, replicate 2": 0}
